This assay has as its target human ISG15 (V74D) (human) (UniProt P05161). As to the kind of experiment: SEC; VHH and ISG15 mixed at the indicated molar ratios (1:2, 1:1 or 1:1:1) at 20 μM in 500 μl TBS, 20 min at room temperature; Superdex 75 10/300, fractions on SDS-PAGE; both purified.

Protein sequences, listed by entry. Tags and fused reporters are not part of them. Lines headed by an entry give the natural chain unless they say otherwise; changes in a name come on top.
UniProt P05161: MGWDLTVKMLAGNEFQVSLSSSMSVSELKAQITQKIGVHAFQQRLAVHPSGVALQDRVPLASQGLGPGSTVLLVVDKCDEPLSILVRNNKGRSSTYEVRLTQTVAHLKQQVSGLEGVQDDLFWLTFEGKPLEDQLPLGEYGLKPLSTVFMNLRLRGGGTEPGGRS

Where a chain is given by its changes, count along the chain named. Names may count otherwise. No constants are given. Whether binding was seen depends on the method and setting. Where a sequence is shown, tags or fusion partners need not be part of it.

B1: VHH_(ISG15-B)-HA-His (VHH)
VHH: QVQLVETGGGLVEPGGSLRLSCTVSGINFSSQFMAWFRQGPGKQREWVAIDAGEENVGYLDLVEGRFTISRDTARNTLYLQMNSLKPEDTAVYYCNIFPVLPDSRWGQGTQVTVSS
As for B1, the binding result was “no binding (tested: 20 μM)”.

B2: VHH_(ISG15-B) (F98D) (VHH)
VHH: B1 VHH with F98D
Regarding B2, the binding result is on record as “no binding (tested: 20 μM)”.

The record behind these values is PMC12406269.
